# Experimental data published in PubChem BioAssay AID504467 (National Center for Advancing Translational Sciences (NCATS), 2011).
# Where “and” joins values, the source holds several entries; their conditions need not be identical. Identical values can stand only once. Among all 330,000 compounds or so, about 7,700 (2.3%) were called active. The inconclusive results got no clear call from the source; some entries with a clear call stand among them for comparison. The call rests on the fitted dose curve; in most records, active means well fitted inhibition curve with a large enough effect; inconclusive means small, poorly fitted or top-dose-only effect, or effect the other way; inactive means flat fitted curve, though single readings scatter. Potencies beside an inconclusive call are fits to weak or partial responses and may not hold up.
# Assay: qHTS screen for small molecules that inhibit ELG1-dependent DNA repair in human embryonic kidney (HEK293T) cells expressing luciferase-tagged ELG1; further: nearly all actives have a fitted effect of over 55% in size
# Conditions: HEK293T ELG1-luciferase reporter, luminescence, 16 h, DNA damage induced by 5-fluorouridine; activity change, negative = inhibition: at 46.1 µM (top of the series)
# Method in brief: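 Cells (2,000 per well) received 5-fluorouridine plus test compound or DMSO and were incubated 16 hr at 37 °C, 5% CO2. Luciferase activity was read by luminescence 30 min after ONE-Glo addition; signal suppression marked inhibition of damage-induced ELG1 function.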
# On the % scale 0 is the no-effect control and ±100 the full control effect; potency means the concentration at half of the fitted maximal effect.
Structure (SMILES),"activity change, negative = inhibition",Potency
O=C1Nc2ccc(Br)cc2C1(O)c1ccc(F)cc1 (configuration not stated),inactive: -0.0456%,–
CCn1c(CNC(=O)COc2ccc(C(C)C)cc2)nnc1SCC(=O)Nc1ccccc1,–,"inconclusive: 18.4 µM [inhibitor, partial curve]"
COc1ccc(CCNC(=O)CCc2ccc(S(=O)(=O)NCC(C)C)cc2)cc1OC,inactive: -27.2%,–
O=C(OCc1csc(-c2ccccc2)n1)C1=NN(c2ccccc2)C(=O)CC1,–,"inconclusive: 25.9 µM [activator, single point]"
COc1ccc(-n2nc3ccc(N)cc3n2)cc1Cl,–,"inconclusive: 17.8 µM [activator, partial curve]"
COc1ccc(/C=C/C(=O)O/N=C(\N)c2ccccc2)cc1OC,–,"inconclusive: 16.4 µM [activator, partial curve]"
COc1ccccc1S(=O)(=O)Cc1ccc(C(=O)N2CCN(c3ccccn3)CC2)o1,–,"inconclusive: 20.6 µM [inhibitor, partial curve]"
Cc1onc(-c2c(F)cccc2Cl)c1C(=O)OCC(=O)Nc1c(C)n(C)n(-c2ccccc2)c1=O,–,"inconclusive: 23.1 µM [inhibitor, partial curve, poor fit]"
CC1(C)CC(n2c(NCCO)nc3c(c2=O)C2(CCCC2)Cc2ccccc2-3)CCO1 (configuration not stated),–,"inconclusive: 32.6 µM [inhibitor, partial curve, poor fit]"
O=C(Nc1ccccc1)N1CCSc2cc(Cl)ccc21,–,"inconclusive: 0.231 µM [activator, single point]"
Cc1ccc(NC(=O)CSc2nncn2N)cc1C,inactive: -3.65%,–
CCN1C(=O)c2cccc3c(S(=O)(=O)Nc4nc(C)cs4)ccc1c23,–,"inconclusive: 25.9 µM [activator, single point]"
O=C(CSc1nc2ccccc2c(=O)n1CCCN1CCOCC1)Nc1ccc(Br)cc1,–,"inconclusive: 29.1 µM [inhibitor, single point]"
Cn1c2c(c(=O)[nH]c1=O)C(c1cccc(O)c1)C1=C(N2)c2ccccc2C1=O (configuration not stated),–,"inconclusive: 5.8 µM [inhibitor, partial curve, poor fit]"
O=C(CSc1nc2ccccc2c(=O)n1Cc1ccccc1)Nc1ccc(Br)cc1C(=O)O,inactive: -0.166%,–
CCn1c(SCC(=O)Nc2ccc(OC)cc2)nc2c(c1=O)SCC2,inactive: -2.33%,–
CCn1c(=O)n(CC)c2cc(N3CCCC3)c(NC(=O)c3ccc(C)c([N+](=O)[O-])c3)cc21,–,"inconclusive: 29.1 µM [inhibitor, single point]"
CC1CCN(S(=O)(=O)N2CCC(C(=O)NCc3cccs3)CC2)CC1,–,"inconclusive: 0.291 µM [activator, partial curve, poor fit]"
Cc1ccc(Sc2cnc3ccccc3n2)cc1,–,"inconclusive: 13 µM [activator, partial curve]"
C[n+]1ccccc1N1CCN(c2ccccc2Cl)CC1,–,"inconclusive: 6.51 µM [inhibitor, single point]"
Cc1ccccc1NC1=NCC(c2ccc([N+](=O)[O-])cc2)S1 (configuration not stated),–,"inconclusive: 18.3 µM [activator, partial curve]"
COc1ccccc1CNC(=O)CSc1nc2ccccc2c(=O)n1CCCN1CCOCC1,inactive: 11.6%,–
Cc1ccc(C(=O)Nc2ccc3c(c2)OCO3)cc1NC(=O)c1ccco1,–,"inconclusive: 9.2 µM [activator, partial curve]"

Structure (SMILES),"activity change, negative = inhibition",Potency
CC(NC(=O)c1ccccc1NC(=O)c1ccncc1)c1ccccc1 (configuration not stated),inactive: -13.7%,–
CCN(CC)S(=O)(=O)c1ccc(Cl)c(C(=O)OC)c1,–,"inconclusive: 32.6 µM [activator, partial curve, poor fit]"
Cc1cc(C)n(C(N)=NC(=O)c2ccc([N+](=O)[O-])cc2)n1,–,"inconclusive: 2.59 µM [activator, full curve]"
COC(=O)C(CCCCN1C(=O)C2C3C=CC(C3)C2C1=O)N1C(=O)C2C3C=CC(C3)C2C1=O (configuration not stated),inactive: 0.131%,–
COc1ccc(NC(=O)C(NC(=O)Cc2cccs2)c2ccc(C)cc2)cc1 (configuration not stated),–,"inconclusive: 29.1 µM [activator, single point]"
COc1ccccc1COCC(O)CN(Cc1ccco1)Cc1ccccc1O (configuration not stated),–,"inconclusive: 20.6 µM [inhibitor, partial curve, poor fit]"
Cc1cccc(NC(=S)NC2CC3C=CC2C3)c1 (configuration not stated),inactive: 4.15%,–
CCOC(=O)c1sc(NC(=O)c2sccc2C)cc1C,–,"inconclusive: 1.3 µM [activator, partial curve]"
CC(Sc1nc(-c2ccc(F)cc2)cs1)C(=O)N1c2ccccc2CC1C (configuration not stated),–,active: 25.9 µM
Cc1onc(C(=O)Nc2ccc3c(c2)OCO3)c1[N+](=O)[O-],–,"inconclusive: 23.1 µM [activator, single point]"
C#CCOCCOCCOCCNc1nc(N2CCN(C(=O)CCCCCCCCCCNC(=O)[C@@H](CCSC)n3cc(CCO)nn3)CC2)nc(N2CCN(C(=O)CCCCCCCCCCNC(=O)[C@H]([C@@H](C)CC)n3cc(CCCCCN)nn3)CC2)n1,–,"inconclusive: 7.08 µM [inhibitor, single point]"
CC1(C)CC(=O)C2=C(C1)Nc1ccccc1NC2,inactive: 1.29%,–
O=S(=O)(N1CCOCC1)n1nnc2ccccc21,inactive: 14.1%,–
Cc1c(C(=O)NCCSCc2cccc(C(F)(F)F)c2)cnn1-c1ccc(F)cc1,–,"inconclusive: 29.1 µM [inhibitor, single point]"
COc1ccc2nc(SCC(=O)Nc3nccs3)[nH]c2c1,inactive: 26.3%,–
CC1CCCCC12NC(=O)N(CC(=O)Nc1sccc1C(N)=O)C2=O (configuration not stated),inactive: 10.1%,–
Cc1ccc2c(=O)n3c(nc2c1)C(Cc1ccc(O)cc1)NC(=O)c1ccc(Cl)cc1-3 (configuration not stated),inactive: 9.25%,–
CC(=O)Nc1cccc(C(=O)/C=C/c2ccc(/C=C/C(=O)c3cccc(NC(C)=O)c3)cc2)c1,–,"inconclusive: 29.1 µM [inhibitor, single point]"
CC(=O)c1c(C)[nH]c(C(=O)OCC(=O)NCCC(C)C)c1C,–,"inconclusive: 10.3 µM [inhibitor, partial curve]"
CCSc1nc(N)nc(-c2cccs2)c1C#N,–,"inconclusive: 18.4 µM [activator, partial curve]"
Cc1ccc(NC(=O)CC2SC(=O)NC2=O)cc1 (configuration not stated),inactive: -0.407%,–
O=C(CSc1ncn[nH]1)Nc1nc(-c2cccc([N+](=O)[O-])c2)cs1,–,"inconclusive: 32.6 µM [inhibitor, single point]"
CCOc1ccc(CC(=O)N/N=C/c2cccnc2)cc1,inactive: 11.5%,–

Structure (SMILES),"activity change, negative = inhibition",Potency
Cc1cc2nc(-c3ccc(SCC(=O)N4CCc5ccccc54)nc3)[nH]c2cc1C,–,"inconclusive: 1.3 µM [activator, full curve]"
CCc1nc(SCC(=O)Nc2ccc(N(C)C)cc2)c2ccccc2n1,–,"inconclusive: 23.1 µM [inhibitor, single point]"
COc1ccccc1/C=C/C(=O)OCC(=O)NC1CC1,inactive: 18.5%,–
Cc1cc(C)c(C#N)c(SCC(=O)C(C)(C)C)n1,–,"inconclusive: 29.1 µM [activator, single point]"
COc1cccc(NC(=O)CSc2nc3ccccc3nc2N2CCOCC2)c1,inactive: 10.8%,–
COC(=O)c1ccccc1NC(=O)C1CCN(C(=O)N2CCOc3ccccc32)CC1,–,"inconclusive: 23.1 µM [inhibitor, single point]"
CSc1ccc(C2CC(=O)Nc3nc(SC)[nH]c(=O)c32)cc1 (configuration not stated),–,"inconclusive: 3.26 µM [activator, partial curve, poor fit]"
c1ccc2[nH]c(-c3ccncc3)nc2c1,–,"inconclusive: 23.1 µM [activator, partial curve] and inconclusive: 18.3 µM [activator, partial curve]"
Clc1ccc(CNc2ccc(N3CCN(Cc4ccccc4)CC3)cc2)cc1,–,"inconclusive: 6.51 µM [inhibitor, partial curve]"
CCCNC(=O)c1ccc(N2CCC3(CC2)CC(c2ccccc2)=NO3)c([N+](=O)[O-])c1,–,"inconclusive: 29.1 µM [inhibitor, single point]"
Cc1ccccc1NC(=O)COC(=O)CCC(=O)c1cccs1,inactive: 14.5%,–
COc1ccc(C(=O)OC(C(=O)c2ccc(C)cc2)c2ccccc2)cc1 (configuration not stated),–,"inconclusive: 23.1 µM [inhibitor, partial curve, poor fit]"
O=C(c1c(F)cccc1F)N1CCCC(c2nc(-c3ccc(F)cc3)no2)C1 (configuration not stated),–,"inconclusive: 16.4 µM [inhibitor, partial curve, poor fit]"
Cc1cccc(/C=C2/Sc3ccc(C(=O)NCCCN4CCOCC4)cc3NC2=O)c1,inactive: -11.6%,–
CCS(=O)(=O)n1nc(-c2ccccc2)nc1NCc1ccco1,–,"inconclusive: 25.9 µM [activator, partial curve, poor fit]"
Cc1cc(=O)n2nc(-c3ccccc3)sc2c1C#N,–,"inconclusive: 25.9 µM [activator, partial curve, poor fit]"
Cc1c(NC(=O)/C(C#N)=C/c2ccc(-c3cc(Cl)ccc3Cl)o2)c(=O)n(-c2ccccc2)n1C,–,active: 18.4 µM
O=C1CC(Sc2ncccc2C(=O)O)C(=O)N1 (configuration not stated),–,"inconclusive: 14.6 µM [activator, partial curve, poor fit]"
CC(C)(C)C(C(=O)Oc1ccccc1)c1ccccc1 (configuration not stated),–,"inconclusive: 29.1 µM [activator, single point]"
COc1ccccc1/C=C/c1nc(C#N)c(N(C)C)o1,–,"inconclusive: 10 µM [activator, partial curve]"
Cc1ccc(NC(=O)[C@H](CC(C)C)NC(=O)[C@@H]2Cc3ccccc3CN2)cc1,–,"inconclusive: 23.1 µM [activator, single point]"
